Some results were stated once for a whole list of compounds, not compound by compound. For at least one compound, name, drawing or mass did not settle the structure.
These compounds were tested on E. coli ATCC 10536 (assay: Bacterial contact time (BCT) test of perfume ingredients in 20% ethanol solutions (EN-1276 based)). Conditions: less than or equal to 0.1% (w/v) perfume ingredient in ethanol solution; contact time 45 s.
Type: cell-based, Escherichia coli
In the case of CCC(C)(O)CCCC(C)C (stereo not drawn) [3,7-dimethyl-3-octanol], the “bactericidal activity in ethanol solutions” value (“bactericidal activity” below) is reported as “high bactericidal activity (at least a 5.5 log reduction in bacterial viability at less than or equal to 0.1% (w/v) of the bactericidal perfume ingredients in ethanol solution)”. COC(=O)/C=C/c1ccccc1 [methyl (E)-3-phenyl-2-propenoate] was tested, and the “bactericidal activity” value was “high bactericidal activity (at least a 5.5 log reduction in bacterial viability at less than or equal to 0.1% (w/v) of the bactericidal perfume ingredients in ethanol solution)”. With CCCc1cccc(O)c1 [3-propylphenol] the “bactericidal activity” value was “high bactericidal activity (at least a 5.5 log reduction in bacterial viability at less than or equal to 0.1% (w/v) of the bactericidal perfume ingredients in ethanol solution)”. CCCCCCC1CCC(=O)O1 (stereo not drawn) [4-decanolide] was tested, and the “bactericidal activity” value was “high bactericidal activity (at least a 5.5 log reduction in bacterial viability at less than or equal to 0.1% (w/v) of the bactericidal perfume ingredients in ethanol solution)”. CCCCCCCCO [1-octanol] was tested, and the “bactericidal activity” value was “high bactericidal activity (at least a 5.5 log reduction in bacterial viability at less than or equal to 0.1% (w/v) of the bactericidal perfume ingredients in ethanol solution)”. For CC1(C)C2CCC1(C)C(C1CCCCC1O)C2 (stereo not drawn) [2-(1,7,7-trimethylbicyclo[2.2.1]hept-2-yl)-1-cyclohexanol], the “bactericidal activity” value was “high bactericidal activity (at least a 5.5 log reduction in bacterial viability at less than or equal to 0.1% (w/v) of the bactericidal perfume ingredients in ethanol solution)”. In the case of CC1C2CC(CC2C2CCCC(O)C2)C1(C)C (stereo not drawn) [3-(5,5,6-trimethylbicyclo[2.2.1]hept-2-yl)-1-cyclohexanol], the “bactericidal activity” value is reported as “high bactericidal activity (at least a 5.5 log reduction in bacterial viability at less than or equal to 0.1% (w/v) of the bactericidal perfume ingredients in ethanol solution)”. With CCOC(=O)/C=C/c1ccccc1 [ethyl (E)-3-phenyl-2-propenoate] the “bactericidal activity” value was “high bactericidal activity (at least a 5.5 log reduction in bacterial viability at less than or equal to 0.1% (w/v) of the bactericidal perfume ingredients in ethanol solution)”. In the case of C=C/C(C)=C/CC1OC1(C)C (stereo not drawn) [(2,2-dimethyl-3-[(2E)-3-methyl-2,4-pentadien-1-yl]oxirane], the “bactericidal activity” value is reported as “high bactericidal activity (at least a 5.5 log reduction in bacterial viability at less than or equal to 0.1% (w/v) of the bactericidal perfume ingredients in ethanol solution)”. For C=CC(C)CC(=O)CC(C)C (stereo not drawn) [2,6-dimethyl-7-octen-4-one], the “bactericidal activity” value was “high bactericidal activity (at least a 5.5 log reduction in bacterial viability at less than or equal to 0.1% (w/v) of the bactericidal perfume ingredients in ethanol solution)”. In the case of CC(=O)OCCC1CCCCC1 [2-cyclohexylethyl acetate], the “bactericidal activity” value is reported as “high bactericidal activity (at least a 5.5 log reduction in bacterial viability at less than or equal to 0.1% (w/v) of the bactericidal perfume ingredients in ethanol solution)”. CC/C=C\CC/C=C/CO [(2E,6Z)-2,6-nonadien-1-ol] was tested, and the “bactericidal activity” value was “high bactericidal activity (at least a 5.5 log reduction in bacterial viability at less than or equal to 0.1% (w/v) of the bactericidal perfume ingredients in ethanol solution)”. With CC1=C(C=O)C(C)(C)CC=C1 [2,6,6-trimethyl-1,3-cyclohexadiene-1-carbaldehyde] the “bactericidal activity” value was “high bactericidal activity (at least a 5.5 log reduction in bacterial viability at less than or equal to 0.1% (w/v) of the bactericidal perfume ingredients in ethanol solution)”. In the case of C/C=C\c1ccc(OC)c(OC)c1 [1,2-dimethoxy-4-[(1Z)-1-propen-1-yl]benzene], the “bactericidal activity” value is reported as “high bactericidal activity (at least a 5.5 log reduction in bacterial viability at less than or equal to 0.1% (w/v) of the bactericidal perfume ingredients in ethanol solution)”. With CC1=CC(C)C(C=O)C(C)C1 (stereo not drawn) [2,4,6-trimethyl-3-cyclohexene-1-carbaldehyde] the “bactericidal activity” value was “high bactericidal activity (at least a 5.5 log reduction in bacterial viability at less than or equal to 0.1% (w/v) of the bactericidal perfume ingredients in ethanol solution)”.
